# Results published in patent US20150328147A1, “METHOD FOR INTRODUCING BIOLOGICALLY ACTIVE SUBSTANCES INTO THE BRAIN” (BBU-VITA CORP., priority 2012, published 2015).
# For at least one compound, name, drawing or mass did not settle the structure.
# System: sexually mature white rats
# Experiment: Experiment 3: duration of phenobarbital sleep after single or fractionated nasal administration with H2O2
# Type: in vivo
# Settings: intermittent method versus single administration
# Text: Experiment 3: The effect of phenobarbital was investigated experimentally on sexually mature white rats, using a nasal administration. The sleep duration conditioned by phenobarbital following nasal administration of phenobarbital was compared against the presence and absence of vaso-active and neuroactive substance. The typical results of an experiment are listed in Tab. 4.
smiles,measurement,value
CCC1(c2ccccc2)C(=O)NC(=O)NC1=O [phenobarbital],"effect of phenobarbital with short-term, intermittent nasal administration synchronously with H2O2",significantly increases the effect
